This assay has as its target T1, SET domain containing 7 (SETD7) (human (endogenous in T24 and UMUC3)) (UniProt Q8WTS6).
T1 sequence: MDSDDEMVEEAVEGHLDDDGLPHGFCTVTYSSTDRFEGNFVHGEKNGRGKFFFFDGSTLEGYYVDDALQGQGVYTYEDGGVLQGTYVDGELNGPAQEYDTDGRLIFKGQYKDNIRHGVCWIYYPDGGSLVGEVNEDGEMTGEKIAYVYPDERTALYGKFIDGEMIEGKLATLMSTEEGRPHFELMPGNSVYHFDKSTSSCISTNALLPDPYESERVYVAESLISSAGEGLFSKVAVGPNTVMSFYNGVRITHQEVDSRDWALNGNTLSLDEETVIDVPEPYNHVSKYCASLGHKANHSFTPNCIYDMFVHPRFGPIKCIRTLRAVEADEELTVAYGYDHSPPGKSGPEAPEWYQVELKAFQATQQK
Put plainly: co-IP; IP/CO-IP Kit (Absin); immunoprecipitation with anti-SETD7 antibody (1:120, Abcam) overnight at 4 °C, western blot with anti-STAT3; T24 and UMUC3 cells.

Amino acid sequences for entries named in this document (tags omitted).
UniProt P40763: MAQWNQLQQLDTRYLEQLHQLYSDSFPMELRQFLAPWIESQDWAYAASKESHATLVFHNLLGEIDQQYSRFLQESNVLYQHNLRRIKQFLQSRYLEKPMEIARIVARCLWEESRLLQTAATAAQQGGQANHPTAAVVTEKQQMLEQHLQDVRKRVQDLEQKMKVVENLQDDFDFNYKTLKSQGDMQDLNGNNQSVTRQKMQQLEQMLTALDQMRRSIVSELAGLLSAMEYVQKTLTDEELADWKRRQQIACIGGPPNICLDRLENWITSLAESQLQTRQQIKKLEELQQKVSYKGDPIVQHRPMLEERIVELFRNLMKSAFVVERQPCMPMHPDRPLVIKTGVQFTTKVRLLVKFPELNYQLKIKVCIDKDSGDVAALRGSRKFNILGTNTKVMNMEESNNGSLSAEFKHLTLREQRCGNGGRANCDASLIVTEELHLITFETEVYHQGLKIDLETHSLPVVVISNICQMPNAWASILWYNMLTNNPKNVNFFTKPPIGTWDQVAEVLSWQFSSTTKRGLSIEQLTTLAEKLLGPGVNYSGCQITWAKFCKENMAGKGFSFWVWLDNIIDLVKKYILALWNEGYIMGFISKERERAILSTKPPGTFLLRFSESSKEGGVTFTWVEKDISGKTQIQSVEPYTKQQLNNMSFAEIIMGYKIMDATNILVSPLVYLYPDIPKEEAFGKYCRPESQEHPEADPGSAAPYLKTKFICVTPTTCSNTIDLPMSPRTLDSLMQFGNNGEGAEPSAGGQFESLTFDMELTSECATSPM

Results are given in words; binding and its absence hold for the method and conditions named. Binding seen in cells or lysates may run through a third protein. Some entries that bind do so weakly or less than the wild type.

As for STAT3 (from UniProt P40763 1-770), the binding result is recorded as “binds”.

The values above are taken from paper PMC10411476.
